Test results published in article PMC7425896 (2020).

Target: α-Synuclein fibrils (preformed fibrils of recombinant human wild-type αSyn) (human, UniProt P37840 1-140)
Test: ATTO488-labelled

Kd: 450 nM
B1: Hsc70 SBD-lid (α-helical sub-domain of the Substrate Binding Domain) (domain or fragment)
chain: LSKEDIERMVQEAEKYKAEDEKQRDKVSSKNSLESYAFNMKATVEDEKLQGKINDEDKQKILDKCNEIINWLDKNQTAEKEEFEHQQKELEKVCNPIITKLYQSAGGMPGGMPGGFPGGGAPPSGGASSGPTIEEVD
modifications: ATTO488 (aminoreactive dye) on primary amines; 0.05 to 0.08 dye molecules incorporated on average
